Tested on: patient with zoster distributed skin eruption (dermatoma T6) and severe pain
Conditions: human, in vivo

Which “relief of the pain” value does the source give for `CCN(CC)CC(=O)Nc1c(C)cccc1C` [lidocaine] here?
Its value is “no or poor relief of the pain”.

— patent US9107925B2 (priority 2010, dated 2015)
